No constants are given. Whether binding was seen depends on the method and setting. Some binding calls cover weakened binding; strength is not graded here. Sequences can lack the tags named with a protein.
T1: β-casein (UniProt P02666)
T1 sequence: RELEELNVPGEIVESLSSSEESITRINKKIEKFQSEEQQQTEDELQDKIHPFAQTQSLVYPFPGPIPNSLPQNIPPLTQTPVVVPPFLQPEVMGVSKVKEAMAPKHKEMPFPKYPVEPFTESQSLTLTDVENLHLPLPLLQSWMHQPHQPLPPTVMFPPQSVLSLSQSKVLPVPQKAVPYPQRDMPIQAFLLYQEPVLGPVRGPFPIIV


Target: T1, β-casein
Assay: SPR; BIAcore 2000; β-casein immobilized on Sensor Chip CM7; HtrA variants 100, 150, 200, 250, 300 nM run over; HBS-EP (150 mM NaCl, 10 mM HEPES pH 7.4, 3 mM EDTA, 0.005% Surfactant P20); 15 μl/min, 30 μl injections; averaged affinity, binding parameters not calculated; both purified

| Binder | binding |
| --- | --- |
| HtrA-C57A/C69A/S210A–6×His tag (ΔCys variant) (enzyme, UniProt P0C0V0 27-474) AETSSATTAQQMPSLAPMLEKVMPSVVSINVEGSTTVNTPRMPRNFQQFFGDDSPFAQEGSPFQSSPFAQGGQGGNGGGQQQKFMALGSGVIIDADKGYVVTNNHVVDNATVIKVQLSDGRKFDAKMVGKDPRSDIALIQIQNPKNLTAIKMADSDALRVGDYTVAIGNPFGLGETVTSGIVSALGRSGLNAENYENFIQTDAAINRGNAGGALVNLNGELIGINTAILAPDGGNIGIGFAIPSNMVKNLTSQMVEYGQVKRGELGIMGTELNSELAKAMKVDAQRGAFVSQVLPNSSAAKAGIKAGDVITSLNGKPISSFAALRAQVGTMPVGSKLTLGLLRDGKQVNVNLELQQSSQNQVDSSSIFNGIEGAEMSNKGKDQGVVVNNVKTGTPAAQIGLKKGDVIIGANQQAVKNIAELRKVLDSKPSVLALNIQRGDSTIYLLMQ | binds |
| HtrA-S210A–6×His tag (oxidized control variant) (enzyme, UniProt P0C0V0 27-474, disulfide bond Cys57-Cys69 (oxidized)) AETSSATTAQQMPSLAPMLEKVMPSVVSINVEGSTTVNTPRMPRNFQQFFGDDSPFCQEGSPFQSSPFCQGGQGGNGGGQQQKFMALGSGVIIDADKGYVVTNNHVVDNATVIKVQLSDGRKFDAKMVGKDPRSDIALIQIQNPKNLTAIKMADSDALRVGDYTVAIGNPFGLGETVTSGIVSALGRSGLNAENYENFIQTDAAINRGNAGGALVNLNGELIGINTAILAPDGGNIGIGFAIPSNMVKNLTSQMVEYGQVKRGELGIMGTELNSELAKAMKVDAQRGAFVSQVLPNSSAAKAGIKAGDVITSLNGKPISSFAALRAQVGTMPVGSKLTLGLLRDGKQVNVNLELQQSSQNQVDSSSIFNGIEGAEMSNKGKDQGVVVNNVKTGTPAAQIGLKKGDVIIGANQQAVKNIAELRKVLDSKPSVLALNIQRGDSTIYLLMQ | binds |
